Differences between knockout arms are mostly noise.
Tested on: HCC-38
Assay: relative cell number vs DMSO control (72 h) (% of DMSO); higher = less growth inhibition (more cells)
Experimental: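 QMAP-Seq: a pool of 5 breast cancer cell lines (ZR-75-1, SKBR3, HCC-38, MDA-MB-231, BT-20), each carrying 12 doxycycline-inducible Cas9 sgRNA perturbations (11 knockouts plus non-targeting sgNT), was treated with compounds for 72 h at four 10-fold doses (10 nM-10 uM or 1 nM-1 uM range). Barcodes were amplified and sequenced, and cell number was interpolated from 293T spike-in standard curves. The result is expressed as % of the median of DMSO wells. Two biological replicates.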

CC(C)(C)OC(=O)CN(Cc1ccc(Cl)cc1)Cc1ccc([N+](=O)[O-])s1 [GSK4112]
Conditions	relative cell number
sgRNA knockout: sgATF3, 10 nM	85.56
sgRNA knockout: sgATF3, 100 nM	98.4
sgRNA knockout: sgATF3, 1000 nM	96.3
sgRNA knockout: sgATF3, 10000 nM	95.8
sgRNA knockout: sgATF4, 10 nM	80.7
sgRNA knockout: sgATF4, 100 nM	92.1
sgRNA knockout: sgATF4, 1000 nM	101
sgRNA knockout: sgATF4, 10000 nM	94.1
sgRNA knockout: sgATF6, 10 nM	89.4
sgRNA knockout: sgATF6, 100 nM	106
sgRNA knockout: sgATF6, 1000 nM	97.78
sgRNA knockout: sgATF6, 10000 nM	88.2
sgRNA knockout: sgATG7, 10 nM	87.7
sgRNA knockout: sgATG7, 100 nM	93.4
sgRNA knockout: sgATG7, 1000 nM	105
sgRNA knockout: sgATG7, 10000 nM	96.6
sgRNA knockout: sgERN1, 10 nM	77.6
sgRNA knockout: sgERN1, 100 nM	93
sgRNA knockout: sgERN1, 1000 nM	92.1
sgRNA knockout: sgERN1, 10000 nM	98.2
sgRNA knockout: sgHSF1, 10 nM	88.4
sgRNA knockout: sgHSF1, 100 nM	110
sgRNA knockout: sgHSF1, 1000 nM	111.3
sgRNA knockout: sgHSF1, 10000 nM	95.6
sgRNA knockout: sgHSF2, 10 nM	86.1
sgRNA knockout: sgHSF2, 100 nM	111
sgRNA knockout: sgHSF2, 1000 nM	106
sgRNA knockout: sgHSF2, 10000 nM	101
sgRNA knockout: sgKEAP1, 10 nM	97.6
sgRNA knockout: sgKEAP1, 100 nM	126
sgRNA knockout: sgKEAP1, 1000 nM	110
sgRNA knockout: sgKEAP1, 10000 nM	111
sgRNA knockout: sgNFE2L2, 10 nM	84.4
sgRNA knockout: sgNFE2L2, 100 nM	90.9
sgRNA knockout: sgNFE2L2, 1000 nM	92.5
sgRNA knockout: sgNFE2L2, 10000 nM	91.9
sgRNA knockout: sgSLC35F2, 10 nM	76.6
sgRNA knockout: sgSLC35F2, 100 nM	99.5
sgRNA knockout: sgSLC35F2, 1000 nM	101
sgRNA knockout: sgSLC35F2, 10000 nM	98.4
sgRNA knockout: sgXBP1, 10 nM	78.1
sgRNA knockout: sgXBP1, 100 nM	97.3
sgRNA knockout: sgXBP1, 1000 nM	98.2
sgRNA knockout: sgXBP1, 10000 nM	101

COc1ccc(-c2ccc3c(N4CCOCC4)nc(N4C[C@@H](C)O[C@@H](C)C4)nc3n2)cc1CO
Conditions	relative cell number
sgRNA knockout: sgATF3, 10 nM	99.1
sgRNA knockout: sgATF3, 100 nM	114
sgRNA knockout: sgATF3, 1000 nM	89.6
sgRNA knockout: sgATF3, 10000 nM	45.4
sgRNA knockout: sgATF4, 10 nM	93.2
sgRNA knockout: sgATF4, 100 nM	106
sgRNA knockout: sgATF4, 1000 nM	98.4
sgRNA knockout: sgATF4, 10000 nM	47
sgRNA knockout: sgATF6, 10 nM	93.2
sgRNA knockout: sgATF6, 100 nM	109.2
sgRNA knockout: sgATF6, 1000 nM	93.2
sgRNA knockout: sgATF6, 10000 nM	46.4
sgRNA knockout: sgATG7, 10 nM	87.4
sgRNA knockout: sgATG7, 100 nM	119
sgRNA knockout: sgATG7, 1000 nM	97.4
sgRNA knockout: sgATG7, 10000 nM	48.3
sgRNA knockout: sgERN1, 10 nM	101
sgRNA knockout: sgERN1, 100 nM	115
sgRNA knockout: sgERN1, 1000 nM	86.9
sgRNA knockout: sgERN1, 10000 nM	56.3
sgRNA knockout: sgHSF1, 10 nM	89.7
sgRNA knockout: sgHSF1, 100 nM	117
sgRNA knockout: sgHSF1, 1000 nM	102
sgRNA knockout: sgHSF1, 10000 nM	49
sgRNA knockout: sgHSF2, 10 nM	98.9
sgRNA knockout: sgHSF2, 100 nM	125
sgRNA knockout: sgHSF2, 1000 nM	96.9
sgRNA knockout: sgHSF2, 10000 nM	47.5
sgRNA knockout: sgKEAP1, 10 nM	99.4
sgRNA knockout: sgKEAP1, 100 nM	129
sgRNA knockout: sgKEAP1, 1000 nM	92.3
sgRNA knockout: sgKEAP1, 10000 nM	58
sgRNA knockout: sgNFE2L2, 10 nM	89.8
sgRNA knockout: sgNFE2L2, 100 nM	113
sgRNA knockout: sgNFE2L2, 1000 nM	87.2
sgRNA knockout: sgNFE2L2, 10000 nM	45.1
sgRNA knockout: sgSLC35F2, 10 nM	89.2
sgRNA knockout: sgSLC35F2, 100 nM	113
sgRNA knockout: sgSLC35F2, 1000 nM	89.3
sgRNA knockout: sgSLC35F2, 10000 nM	44.8
sgRNA knockout: sgXBP1, 10 nM	96
sgRNA knockout: sgXBP1, 100 nM	113
sgRNA knockout: sgXBP1, 1000 nM	91.9
sgRNA knockout: sgXBP1, 10000 nM	53.3

CC(C)C[C@H](NC(=O)[C@H](Cc1ccccc1)NC(=O)c1cnccn1)B(O)O [Bortezomib]
Conditions	relative cell number
sgRNA knockout: sgATF3, 1 nM	105
sgRNA knockout: sgATF3, 10 nM	41.6
sgRNA knockout: sgATF3, 100 nM	6.14
sgRNA knockout: sgATF3, 1000 nM	6.83
sgRNA knockout: sgATF4, 1 nM	91.1
sgRNA knockout: sgATF4, 10 nM	43.5
sgRNA knockout: sgATF4, 100 nM	5.86
sgRNA knockout: sgATF4, 1000 nM	6.27
sgRNA knockout: sgATF6, 1 nM	85
sgRNA knockout: sgATF6, 10 nM	39.2
sgRNA knockout: sgATF6, 100 nM	4.77
sgRNA knockout: sgATF6, 1000 nM	7.75
sgRNA knockout: sgATG7, 1 nM	88.3
sgRNA knockout: sgATG7, 10 nM	46.7
sgRNA knockout: sgATG7, 100 nM	5.72
sgRNA knockout: sgATG7, 1000 nM	6.59
sgRNA knockout: sgERN1, 1 nM	85.7
sgRNA knockout: sgERN1, 10 nM	41.3
sgRNA knockout: sgERN1, 100 nM	5.4
sgRNA knockout: sgERN1, 1000 nM	5.09
sgRNA knockout: sgHSF1, 1 nM	73.2
sgRNA knockout: sgHSF1, 10 nM	30.5
sgRNA knockout: sgHSF1, 100 nM	8.4
sgRNA knockout: sgHSF1, 1000 nM	7.9
sgRNA knockout: sgHSF2, 1 nM	95.4
sgRNA knockout: sgHSF2, 10 nM	46.3
sgRNA knockout: sgHSF2, 100 nM	5.95
sgRNA knockout: sgHSF2, 1000 nM	7.83
sgRNA knockout: sgKEAP1, 1 nM	77.8
sgRNA knockout: sgKEAP1, 10 nM	38.8
sgRNA knockout: sgKEAP1, 100 nM	5.94
sgRNA knockout: sgKEAP1, 1000 nM	7.84
sgRNA knockout: sgNFE2L2, 1 nM	93.2
sgRNA knockout: sgNFE2L2, 10 nM	37.8
sgRNA knockout: sgNFE2L2, 100 nM	6.06
sgRNA knockout: sgNFE2L2, 1000 nM	5.96
sgRNA knockout: sgSLC35F2, 1 nM	95.3
sgRNA knockout: sgSLC35F2, 10 nM	47.37
sgRNA knockout: sgSLC35F2, 100 nM	7.92
sgRNA knockout: sgSLC35F2, 1000 nM	8.53
sgRNA knockout: sgXBP1, 1 nM	100
sgRNA knockout: sgXBP1, 10 nM	44.8
sgRNA knockout: sgXBP1, 100 nM	7.28
sgRNA knockout: sgXBP1, 1000 nM	8.11

COc1cc(C(=O)N2CCC(N3CCN(C)CC3)CC2)ccc1Nc1ncc2c(n1)N(C)c1ccccc1C(=O)N2C [LRRK2IN1]
Conditions	relative cell number
sgRNA knockout: sgATF3, 10 nM	119
sgRNA knockout: sgATF3, 100 nM	80.65
sgRNA knockout: sgATF3, 1000 nM	62.07
sgRNA knockout: sgATF3, 10000 nM	38.2
sgRNA knockout: sgATF4, 10 nM	102.4
sgRNA knockout: sgATF4, 100 nM	81.2
sgRNA knockout: sgATF4, 1000 nM	67.6
sgRNA knockout: sgATF4, 10000 nM	42.8
sgRNA knockout: sgATF6, 10 nM	105
sgRNA knockout: sgATF6, 100 nM	81.8
sgRNA knockout: sgATF6, 1000 nM	77.2
sgRNA knockout: sgATF6, 10000 nM	37
sgRNA knockout: sgATG7, 10 nM	105
sgRNA knockout: sgATG7, 100 nM	85.6
sgRNA knockout: sgATG7, 1000 nM	64.1
sgRNA knockout: sgATG7, 10000 nM	39.7
sgRNA knockout: sgERN1, 10 nM	114.8
sgRNA knockout: sgERN1, 100 nM	94.3
sgRNA knockout: sgERN1, 1000 nM	58.7
sgRNA knockout: sgERN1, 10000 nM	38.3
sgRNA knockout: sgHSF1, 10 nM	114
sgRNA knockout: sgHSF1, 100 nM	93.7
sgRNA knockout: sgHSF1, 1000 nM	74.7
sgRNA knockout: sgHSF1, 10000 nM	39.3
sgRNA knockout: sgHSF2, 10 nM	125
sgRNA knockout: sgHSF2, 100 nM	92.43
sgRNA knockout: sgHSF2, 1000 nM	66.6
sgRNA knockout: sgHSF2, 10000 nM	37.19
sgRNA knockout: sgKEAP1, 10 nM	123
sgRNA knockout: sgKEAP1, 100 nM	114
sgRNA knockout: sgKEAP1, 1000 nM	66.5
sgRNA knockout: sgKEAP1, 10000 nM	30.8
sgRNA knockout: sgNFE2L2, 10 nM	108
sgRNA knockout: sgNFE2L2, 100 nM	83.5
sgRNA knockout: sgNFE2L2, 1000 nM	60.3
sgRNA knockout: sgNFE2L2, 10000 nM	45.86
sgRNA knockout: sgSLC35F2, 10 nM	112
sgRNA knockout: sgSLC35F2, 100 nM	83.8
sgRNA knockout: sgSLC35F2, 1000 nM	58.69
sgRNA knockout: sgSLC35F2, 10000 nM	42.6
sgRNA knockout: sgXBP1, 10 nM	109
sgRNA knockout: sgXBP1, 100 nM	80.86
sgRNA knockout: sgXBP1, 1000 nM	63.4
sgRNA knockout: sgXBP1, 10000 nM	40.4

— the supplement of paper PMC7661543
